Results are given in words; binding and its absence hold for the method and conditions named. Some binding calls cover weakened binding; strength is not graded here.
T1: Bone Morphogenic Protein 2 (BMP-2) (UniProt P12643)
T1 sequence (looked up): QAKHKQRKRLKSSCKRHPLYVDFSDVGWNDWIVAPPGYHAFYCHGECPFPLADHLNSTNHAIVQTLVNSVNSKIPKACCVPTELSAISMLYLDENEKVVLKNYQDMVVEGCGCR


biological target: T1, Bone Morphogenic Protein 2 (BMP-2); experiment: phage ELISA on BMP-2, A405 against microliters of phage; order of signal at 0.10 microliters of phage (4th of 9 lines)

binding, binds:
SSYFDVFSSMTGTRAAGSWSR [AP02-26]

biological target: T1, Bone Morphogenic Protein 2 (BMP-2); experiment: phage ELISA on BMP-2, A405 against microliters of phage; order of signal at 0.10 microliters of phage (2nd of 9 lines)

binding, binds:
SSEGWVHFPLKGDVMGGPFSR [AP02-40]

biological target: T1, Bone Morphogenic Protein 2 (BMP-2); experiment: phage ELISA on BMP-2, A405 against microliters of phage; order of signal at 0.10 microliters of phage (1st of 9 lines)

binding, binds:
SSGAWESFSSLSGSS [AP02-61]

biological target: T1, Bone Morphogenic Protein 2 (BMP-2); experiment: collagen sponge retention assay; IFBM premixed with BMP, sponge washed, retained BMP detected with anti-BMP antibody (FIG. 5)

binding, binds:
DVNSIWMSRVIEWTYDSGSSGKSSSVDLYFPLKGDVVSR (C-terminal amide (-NH2)) [IFBM AFF7010 (0016-2012)]
DVNSIWMSRVIEWTYDSGSSGKSRSSDSAFSSFSALEGSVVSR (C-terminal amide (-NH2)) [IFBM AFF7008 (0016-2006)]
DVNSIWMSRVIEWTYDSGSSGKSSDWGVVASAWDAFEALDASR (C-terminal amide (-NH2)) [IFBM AFF7017 (0016-2011)]

biological target: T1, Bone Morphogenic Protein 2 (BMP-2); experiment: collagen sponge retention assay, two-dimensional dose response of IFBM and BMP (FIG. 6A-6D)

binding, binds:
DVNSIWMSRVIEWTYDSGSSGKSSSVDLYFPLKGDVVSR (C-terminal amide (-NH2)) [IFBM AFF7010 (0016-2012)]
SSFEPLRFPLKGVPVSRGSSGKDVNSIWMSRVIEWTYDS (C-terminal amide (-NH2)) [IFBM AFF7005 (2009-0016)]
DVNSIWMSRVIEWTYDSGSSGKSSFEPLRFPLKGVPVSR (C-terminal amide (-NH2)) [IFBM AFF7006 (0016-2009)]
SSSVDLYFPLKGDVVSRGSSGKDVNSIWMSRVIEWTYDS (C-terminal amide (-NH2)) [IFBM AFF7009 (2012-0016)]

biological target: T1, Bone Morphogenic Protein 2 (BMP-2); experiment: phage ELISA on biotinylated BMP-2 on streptavidin plates, anti-M13-HRP

binding, binds:
SSSSGAVSSFESLSGSVVSSR [AP02-55]
SREGVAWEAFGALSSFAADSR [AP02-56]
SSWGLASEASFFSFSALSSSR [AP02-57]
SREGAAWDSFFALSGGSAASR [AP02-58]
SSFEPLRFPLKGVPVSR [AP02-60]
SSAPLTESEAWRGFSKLEVSR [AP02-01]
SSSMPVGWDSWRGLEWSDRSR [AP02-02]
SSEGRGGWNSWEAFRELVVSR [AP02-03]
SSGADFGYGSWVSFSALSASR [AP02-46]
SSGGGGAWESWRGLSGVELSR [AP02-04]
SRNVEGSWESFAGLSHVRESR [AP02-05]
SREDGGRWESFLGLSAVEVSR [AP02-06]
SSVEGSAWSAFKSLSSEGVSR [AP02-07]
SRVEGGAWQALAGLTVERVSR [AP02-08]
SSPPKHAWGSFDALGGQVVSR [AP02-09]
SSERGVGWEVFLAMEGARMSR [AP02-10]
SSSSSGTWQAFTGLSGERVSR [AP02-11]
SSSPGGGSGGWDAFYSLVGSR [AP02-12]
SSGGGGGGEGFSSLSGNGRSR [AP02-13]
SRGEASGWEAFSALEAAVVSR [AP02-47]
SSTGGGSWEEFKAMTPSWTSR [AP02-14]
SSEGSGLWDSFSSLSVHEVSR [AP02-15]
SSGVTQESASWSSFRTLAVSR [AP02-16]
SSSKVAPSGEWRSFATLEVSR [AP02-17]
SSEAGRGWEGFKALEGYQVSR [AP02-18]
SSLGQTGWEAFESLSGTRGSR [AP02-19]
SSVAWDAFTVFESLEGVATSR [AP02-20]
SSEVVEPWEWWVALERAGGSR [AP02-21]
SRVAAVSWEFFGSLSSAGVSR [AP02-22]
SSADLGVSGSWEGFALMRGSR [AP02-23]
SSVGQMGWEAFESLSGTGGSR [AP02-24]
SSGQGETWEWFAGMRGSVASR [AP02-25]
SSYFDVFSSMTGTRAAGSWSR [AP02-26]
SSAYSVFSSLRADNSGGAVSR [AP02-27]
SSEGVGGFPLKGIPQEAWASR [AP02-28]
SSGGFVPFPLRGEVWDGVHSR [AP02-30]
SSEGSLSFPLKGQVYSGWGSR [AP02-31]
SSGKPLEFPLRGTLAEWPVSR [AP02-32]
SRDGAGAAAWGAFSALASESR [AP02-49]
SRGEALGFPLTGQLMEAAESR [AP02-33]
SSMWDVGFPLKGRWIDGADSR [AP02-34]
SSGPALRLPLRGTVVSDVPSR [AP02-36]
SSGLALGLPIKGWTVSGKDSR [AP02-38]
SSGYTLGFPLSGQTIKDWPSR [AP02-39]
SSEGWVHFPLKGDVMGGPFSR [AP02-40]
SSGRYVSLPLKGEVVPQTASR [AP02-41]
SSEGGVGFPLKGIPQEAWASR [AP02-42]
SRVDSVNFPLRGETVTSMVSR [AP02-43]
SRVSGVAAWEAFAGLSVSSSR [AP02-51]
SRDGGSFSAFSSLVWAADSSR [AP02-52]
SSVAGDVGSSWAAFASLAASR [AP02-53]

biological target: T1, Bone Morphogenic Protein 2 (BMP-2); experiment: phage ELISA on BMP-2, A405 against microliters of phage; order of signal at 0.10 microliters of phage (3rd of 9 lines)

binding, binds:
SSGRYVSLPLKGEVVPQTASR [AP02-41]
